Measured values as given in article PMC9633696.
Results are given in words; binding and its absence hold for the method and conditions named. Some entries that bind do so weakly or less than the wild type.

Chains of the proteins cited; added tags and fusions are not shown. Residues count along the entry.
UniProt Q07954, residues 20-4544: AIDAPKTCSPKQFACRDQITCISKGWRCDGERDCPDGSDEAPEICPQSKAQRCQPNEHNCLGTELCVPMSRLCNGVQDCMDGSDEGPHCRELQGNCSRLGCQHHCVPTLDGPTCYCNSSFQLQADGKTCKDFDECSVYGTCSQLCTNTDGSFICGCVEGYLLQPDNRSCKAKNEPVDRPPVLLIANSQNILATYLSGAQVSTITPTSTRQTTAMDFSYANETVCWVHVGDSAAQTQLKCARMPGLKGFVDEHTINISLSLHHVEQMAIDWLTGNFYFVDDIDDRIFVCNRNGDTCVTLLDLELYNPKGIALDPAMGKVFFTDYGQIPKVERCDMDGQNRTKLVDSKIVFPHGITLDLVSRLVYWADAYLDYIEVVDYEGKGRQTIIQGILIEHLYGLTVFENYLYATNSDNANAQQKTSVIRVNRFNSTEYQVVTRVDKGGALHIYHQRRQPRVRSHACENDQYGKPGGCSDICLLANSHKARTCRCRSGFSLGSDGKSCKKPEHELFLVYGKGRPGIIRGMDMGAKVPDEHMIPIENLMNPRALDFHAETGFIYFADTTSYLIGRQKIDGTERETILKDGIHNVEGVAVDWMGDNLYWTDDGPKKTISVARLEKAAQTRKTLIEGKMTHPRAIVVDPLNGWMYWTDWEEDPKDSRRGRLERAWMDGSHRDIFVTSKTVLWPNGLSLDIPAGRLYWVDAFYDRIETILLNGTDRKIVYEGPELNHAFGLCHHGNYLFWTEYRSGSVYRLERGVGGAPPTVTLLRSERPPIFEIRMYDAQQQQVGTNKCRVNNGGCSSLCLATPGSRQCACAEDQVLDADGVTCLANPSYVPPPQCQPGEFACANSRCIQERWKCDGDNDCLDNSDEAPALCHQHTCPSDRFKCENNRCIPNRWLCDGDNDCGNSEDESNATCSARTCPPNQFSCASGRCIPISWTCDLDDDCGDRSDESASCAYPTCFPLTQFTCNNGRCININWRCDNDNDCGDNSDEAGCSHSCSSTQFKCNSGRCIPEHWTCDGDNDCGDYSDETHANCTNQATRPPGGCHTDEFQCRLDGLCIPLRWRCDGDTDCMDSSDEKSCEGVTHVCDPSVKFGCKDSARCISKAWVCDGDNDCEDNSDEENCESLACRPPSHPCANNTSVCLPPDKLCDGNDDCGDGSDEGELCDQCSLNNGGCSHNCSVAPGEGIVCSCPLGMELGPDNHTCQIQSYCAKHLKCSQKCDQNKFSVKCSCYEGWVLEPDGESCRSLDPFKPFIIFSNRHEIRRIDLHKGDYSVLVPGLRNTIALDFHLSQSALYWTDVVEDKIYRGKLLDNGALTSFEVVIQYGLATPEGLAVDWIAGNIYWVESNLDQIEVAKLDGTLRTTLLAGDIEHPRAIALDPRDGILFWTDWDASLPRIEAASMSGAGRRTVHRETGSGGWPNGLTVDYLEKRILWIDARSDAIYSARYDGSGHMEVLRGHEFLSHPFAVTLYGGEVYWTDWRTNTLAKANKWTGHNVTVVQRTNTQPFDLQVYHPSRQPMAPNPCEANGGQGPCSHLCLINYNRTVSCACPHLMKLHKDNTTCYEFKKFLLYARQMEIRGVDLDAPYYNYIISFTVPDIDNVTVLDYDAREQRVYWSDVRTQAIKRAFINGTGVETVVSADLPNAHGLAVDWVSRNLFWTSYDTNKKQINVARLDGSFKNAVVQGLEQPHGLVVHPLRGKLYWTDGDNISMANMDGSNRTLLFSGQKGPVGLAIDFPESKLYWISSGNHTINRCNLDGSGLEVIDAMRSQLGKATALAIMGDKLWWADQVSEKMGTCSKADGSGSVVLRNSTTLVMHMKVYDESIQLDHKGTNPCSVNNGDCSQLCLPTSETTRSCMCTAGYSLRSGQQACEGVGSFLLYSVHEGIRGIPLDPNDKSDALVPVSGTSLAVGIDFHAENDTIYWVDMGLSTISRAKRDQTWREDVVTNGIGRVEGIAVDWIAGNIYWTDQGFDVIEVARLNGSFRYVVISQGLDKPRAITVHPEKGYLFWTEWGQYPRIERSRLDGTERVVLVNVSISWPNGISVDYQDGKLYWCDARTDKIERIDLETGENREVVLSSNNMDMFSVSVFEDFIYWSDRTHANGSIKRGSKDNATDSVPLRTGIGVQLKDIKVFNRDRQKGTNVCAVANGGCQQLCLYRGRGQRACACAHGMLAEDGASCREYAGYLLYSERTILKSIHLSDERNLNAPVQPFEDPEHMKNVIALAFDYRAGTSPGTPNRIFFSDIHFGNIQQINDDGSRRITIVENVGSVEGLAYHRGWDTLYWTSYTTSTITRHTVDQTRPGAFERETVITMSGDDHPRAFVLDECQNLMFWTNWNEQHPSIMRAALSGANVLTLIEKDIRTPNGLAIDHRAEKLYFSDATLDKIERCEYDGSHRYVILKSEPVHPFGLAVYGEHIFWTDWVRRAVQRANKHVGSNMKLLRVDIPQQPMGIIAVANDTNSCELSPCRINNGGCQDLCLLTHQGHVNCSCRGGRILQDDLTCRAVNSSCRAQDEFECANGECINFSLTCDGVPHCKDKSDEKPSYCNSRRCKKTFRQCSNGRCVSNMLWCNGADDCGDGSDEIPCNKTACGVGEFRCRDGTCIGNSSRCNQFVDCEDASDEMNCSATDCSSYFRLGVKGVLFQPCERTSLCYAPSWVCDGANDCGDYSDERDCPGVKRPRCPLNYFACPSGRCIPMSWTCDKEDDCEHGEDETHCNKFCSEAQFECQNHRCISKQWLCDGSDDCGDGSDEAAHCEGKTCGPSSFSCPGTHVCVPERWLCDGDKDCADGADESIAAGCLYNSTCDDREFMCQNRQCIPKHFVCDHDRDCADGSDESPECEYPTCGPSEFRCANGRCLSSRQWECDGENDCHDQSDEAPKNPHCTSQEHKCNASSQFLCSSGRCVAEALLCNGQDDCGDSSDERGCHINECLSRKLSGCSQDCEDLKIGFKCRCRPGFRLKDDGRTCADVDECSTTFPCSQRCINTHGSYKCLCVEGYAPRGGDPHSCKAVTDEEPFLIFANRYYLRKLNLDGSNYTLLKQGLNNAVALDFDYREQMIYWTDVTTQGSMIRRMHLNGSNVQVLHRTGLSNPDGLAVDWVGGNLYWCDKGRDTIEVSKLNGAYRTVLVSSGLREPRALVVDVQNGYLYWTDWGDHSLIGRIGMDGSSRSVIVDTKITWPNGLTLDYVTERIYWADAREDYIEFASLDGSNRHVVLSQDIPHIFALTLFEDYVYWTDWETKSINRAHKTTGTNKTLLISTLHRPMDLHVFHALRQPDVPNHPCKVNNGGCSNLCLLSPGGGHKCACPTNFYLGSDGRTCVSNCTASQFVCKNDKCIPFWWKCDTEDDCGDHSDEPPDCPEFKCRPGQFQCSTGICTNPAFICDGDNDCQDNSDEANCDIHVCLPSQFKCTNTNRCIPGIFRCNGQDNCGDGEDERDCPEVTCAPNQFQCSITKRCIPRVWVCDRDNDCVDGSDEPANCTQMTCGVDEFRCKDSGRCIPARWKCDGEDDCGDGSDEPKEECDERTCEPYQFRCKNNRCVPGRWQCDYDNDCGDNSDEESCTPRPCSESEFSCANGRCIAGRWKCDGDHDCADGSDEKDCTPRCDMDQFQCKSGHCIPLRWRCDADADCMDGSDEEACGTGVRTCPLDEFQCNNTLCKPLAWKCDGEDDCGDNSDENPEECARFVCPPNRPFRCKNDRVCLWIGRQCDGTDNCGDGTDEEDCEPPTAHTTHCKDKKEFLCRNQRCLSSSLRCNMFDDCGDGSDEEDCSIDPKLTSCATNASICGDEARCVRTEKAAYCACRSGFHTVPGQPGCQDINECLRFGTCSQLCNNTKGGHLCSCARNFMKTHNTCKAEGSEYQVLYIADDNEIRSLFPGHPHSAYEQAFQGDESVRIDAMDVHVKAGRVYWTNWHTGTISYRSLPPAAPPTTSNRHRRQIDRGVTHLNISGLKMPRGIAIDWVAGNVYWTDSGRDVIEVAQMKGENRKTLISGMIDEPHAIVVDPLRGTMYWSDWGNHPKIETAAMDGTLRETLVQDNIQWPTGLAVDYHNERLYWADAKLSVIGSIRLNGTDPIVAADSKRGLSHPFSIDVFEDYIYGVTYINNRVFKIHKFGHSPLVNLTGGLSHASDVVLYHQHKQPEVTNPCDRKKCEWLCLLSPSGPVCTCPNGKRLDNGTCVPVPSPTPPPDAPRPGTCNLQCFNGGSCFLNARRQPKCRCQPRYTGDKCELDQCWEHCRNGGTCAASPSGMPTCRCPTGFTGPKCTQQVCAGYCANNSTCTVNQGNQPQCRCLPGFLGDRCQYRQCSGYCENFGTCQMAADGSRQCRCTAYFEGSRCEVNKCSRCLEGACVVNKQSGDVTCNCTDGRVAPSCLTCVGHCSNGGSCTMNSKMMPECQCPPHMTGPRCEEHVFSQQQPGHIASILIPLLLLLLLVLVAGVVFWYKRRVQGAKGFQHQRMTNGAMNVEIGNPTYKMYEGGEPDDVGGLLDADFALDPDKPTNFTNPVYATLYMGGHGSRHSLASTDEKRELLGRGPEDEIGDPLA
UniProt P04275, residues 764-2813: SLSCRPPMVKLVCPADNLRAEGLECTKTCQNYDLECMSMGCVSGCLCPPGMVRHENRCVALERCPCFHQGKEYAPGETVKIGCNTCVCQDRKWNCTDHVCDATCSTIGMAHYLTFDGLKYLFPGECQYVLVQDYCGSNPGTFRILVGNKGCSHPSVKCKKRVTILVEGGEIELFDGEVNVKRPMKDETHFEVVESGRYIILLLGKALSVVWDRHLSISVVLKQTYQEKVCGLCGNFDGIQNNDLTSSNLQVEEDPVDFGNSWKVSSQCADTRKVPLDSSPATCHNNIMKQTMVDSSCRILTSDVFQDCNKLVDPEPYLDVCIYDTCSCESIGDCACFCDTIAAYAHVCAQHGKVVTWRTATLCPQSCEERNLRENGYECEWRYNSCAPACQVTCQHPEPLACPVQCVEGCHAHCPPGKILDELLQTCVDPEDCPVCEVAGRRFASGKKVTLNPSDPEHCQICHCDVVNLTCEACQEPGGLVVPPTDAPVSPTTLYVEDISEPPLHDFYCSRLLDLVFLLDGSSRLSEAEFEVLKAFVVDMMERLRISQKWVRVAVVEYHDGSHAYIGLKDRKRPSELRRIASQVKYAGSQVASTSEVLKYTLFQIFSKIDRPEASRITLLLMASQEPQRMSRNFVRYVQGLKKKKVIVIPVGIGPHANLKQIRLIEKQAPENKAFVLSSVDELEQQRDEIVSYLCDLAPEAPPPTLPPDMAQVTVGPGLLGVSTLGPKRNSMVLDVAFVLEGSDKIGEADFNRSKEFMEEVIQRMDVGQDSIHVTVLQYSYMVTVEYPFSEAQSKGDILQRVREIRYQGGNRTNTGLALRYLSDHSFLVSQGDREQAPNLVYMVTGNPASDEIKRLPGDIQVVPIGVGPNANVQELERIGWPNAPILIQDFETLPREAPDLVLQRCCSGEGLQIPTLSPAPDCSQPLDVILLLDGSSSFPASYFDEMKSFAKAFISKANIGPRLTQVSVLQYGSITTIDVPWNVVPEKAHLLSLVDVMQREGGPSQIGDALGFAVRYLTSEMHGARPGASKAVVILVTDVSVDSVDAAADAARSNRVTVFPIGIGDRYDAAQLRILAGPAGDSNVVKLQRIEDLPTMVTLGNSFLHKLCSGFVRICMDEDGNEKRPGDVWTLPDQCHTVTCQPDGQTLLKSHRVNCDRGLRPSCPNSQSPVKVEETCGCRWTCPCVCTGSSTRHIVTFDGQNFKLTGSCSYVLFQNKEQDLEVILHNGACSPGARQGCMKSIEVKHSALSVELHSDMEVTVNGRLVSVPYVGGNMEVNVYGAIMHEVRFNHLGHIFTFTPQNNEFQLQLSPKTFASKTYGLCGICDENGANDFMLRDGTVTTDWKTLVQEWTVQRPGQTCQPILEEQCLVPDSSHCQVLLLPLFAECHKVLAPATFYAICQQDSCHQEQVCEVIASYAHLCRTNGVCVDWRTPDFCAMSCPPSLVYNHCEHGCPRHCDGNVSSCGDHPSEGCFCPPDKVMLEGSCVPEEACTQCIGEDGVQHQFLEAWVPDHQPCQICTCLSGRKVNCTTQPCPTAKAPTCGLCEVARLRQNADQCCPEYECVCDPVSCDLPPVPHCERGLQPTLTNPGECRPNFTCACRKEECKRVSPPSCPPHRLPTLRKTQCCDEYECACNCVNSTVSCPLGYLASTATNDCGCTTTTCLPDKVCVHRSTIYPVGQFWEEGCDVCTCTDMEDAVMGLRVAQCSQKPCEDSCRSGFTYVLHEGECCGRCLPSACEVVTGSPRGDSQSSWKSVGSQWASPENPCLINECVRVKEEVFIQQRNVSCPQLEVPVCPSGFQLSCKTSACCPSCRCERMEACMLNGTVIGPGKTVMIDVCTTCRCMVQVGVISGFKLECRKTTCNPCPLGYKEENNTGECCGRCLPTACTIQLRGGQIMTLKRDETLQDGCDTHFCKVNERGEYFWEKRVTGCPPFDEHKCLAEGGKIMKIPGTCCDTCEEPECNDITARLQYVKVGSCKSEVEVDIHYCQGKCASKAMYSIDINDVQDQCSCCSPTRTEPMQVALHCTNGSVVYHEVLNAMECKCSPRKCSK

Target: LRP1 on primary human macrophages (human (endogenous in primary human macrophages)) (UniProt Q07954)
Experiment: flow cytometry on cells; pd-VWF incubated with primary human monocyte-derived macrophages in RPMI + 1 mM CaCl2 for 30 min, Fc receptors blocked; with or without LRP1 blocking antibody; bound VWF detected with polyclonal rabbit anti-human VWF and anti-rabbit Alexa-488; only the binder purified

binding: binds
Substance: Human plasma-derived von Willebrand factor-Factor VIII free (from UniProt P04275 764-2813)
